Laboratory results published in paper PMC6904485.
Results are given in words; binding and its absence hold for the method and conditions named. Binding seen in cells or lysates may run through a third protein. Binding can be weak; no strength is given.

Target: T1, Sec62 (human) (UniProt Q99442)
T1 sequence: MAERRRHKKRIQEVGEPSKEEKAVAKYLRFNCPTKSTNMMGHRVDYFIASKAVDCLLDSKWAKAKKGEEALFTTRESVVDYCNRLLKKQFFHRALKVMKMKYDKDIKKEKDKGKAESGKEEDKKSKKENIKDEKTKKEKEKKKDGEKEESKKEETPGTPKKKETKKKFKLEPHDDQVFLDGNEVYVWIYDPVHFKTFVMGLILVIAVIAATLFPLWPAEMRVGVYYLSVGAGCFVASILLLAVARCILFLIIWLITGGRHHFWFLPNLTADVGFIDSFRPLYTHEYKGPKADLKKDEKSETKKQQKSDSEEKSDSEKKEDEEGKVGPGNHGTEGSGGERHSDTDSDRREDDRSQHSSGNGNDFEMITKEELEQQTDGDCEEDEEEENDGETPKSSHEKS
Assay: co-IP; Huh7 cell lysate (50 mM HEPES, 150 mM NaCl, 1 mM EDTA, 1% CHAPS, with or without 50 μg/ml RNaseA). Legend: Co-IP with an anti-Sec62 antibody, Western blot for integrin αV and α5. Methods: M2 FLAG agarose resin, 4 °C overnight, elution with FLAG peptide

| Substance | binding |
| --- | --- |
| integrin α5 (human (endogenous in Huh7)) | binds |
| integrin αV (human (endogenous in Huh7)) | binds |
